Results are given in words; binding and its absence hold for the method and conditions named. Binding seen in cells or lysates may run through a third protein. A yes stands for co-enrichment or nearness to the bait. Other partners may have been found.
Biological target: GST-CD147-ICD (human) (UniProt P35613)
Test: affinity purification with mass spectrometry; 20 ug GST-CD147-ICD or GST pre-bound to coupling resin (ProFound Mammalian co-IP Kit); lysate of 1 x 10^7 cells (cell line not given); four washes with IP Lysis/Wash Buffer; eluate digested with trypsin, LTQ-Orbitrap; only the target purified

The chains behind the UniProt entries cited, without tags or fusion partners. Residues count along the entry.
UniProt P35613, residues 346-385: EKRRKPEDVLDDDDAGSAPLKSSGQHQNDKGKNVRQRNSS

- binding: binds
Substance: FBXO22 (from UniProt Q8NEZ5-1 1-403)

Source: paper PMC5297841
